The results in this text go back to article PMC11043371.

Sequences of proteins named here, by UniProt entry; tags and fusion partners are left off.
UniProt P12956: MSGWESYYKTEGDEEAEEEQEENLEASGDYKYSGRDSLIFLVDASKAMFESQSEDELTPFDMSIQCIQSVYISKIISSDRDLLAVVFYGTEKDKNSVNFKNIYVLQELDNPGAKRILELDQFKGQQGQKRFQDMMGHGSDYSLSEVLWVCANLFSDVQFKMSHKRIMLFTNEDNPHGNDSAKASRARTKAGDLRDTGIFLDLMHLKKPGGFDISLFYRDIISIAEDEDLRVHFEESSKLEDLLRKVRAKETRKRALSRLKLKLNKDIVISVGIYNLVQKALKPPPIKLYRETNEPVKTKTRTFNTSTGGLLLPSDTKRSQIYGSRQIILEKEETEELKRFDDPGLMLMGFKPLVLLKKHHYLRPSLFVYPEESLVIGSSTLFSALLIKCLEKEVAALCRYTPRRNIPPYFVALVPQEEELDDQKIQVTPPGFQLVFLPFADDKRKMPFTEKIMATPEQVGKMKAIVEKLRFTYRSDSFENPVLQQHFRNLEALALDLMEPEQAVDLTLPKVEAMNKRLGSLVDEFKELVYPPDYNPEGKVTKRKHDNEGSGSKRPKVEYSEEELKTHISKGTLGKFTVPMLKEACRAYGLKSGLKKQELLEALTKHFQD
UniProt P13010: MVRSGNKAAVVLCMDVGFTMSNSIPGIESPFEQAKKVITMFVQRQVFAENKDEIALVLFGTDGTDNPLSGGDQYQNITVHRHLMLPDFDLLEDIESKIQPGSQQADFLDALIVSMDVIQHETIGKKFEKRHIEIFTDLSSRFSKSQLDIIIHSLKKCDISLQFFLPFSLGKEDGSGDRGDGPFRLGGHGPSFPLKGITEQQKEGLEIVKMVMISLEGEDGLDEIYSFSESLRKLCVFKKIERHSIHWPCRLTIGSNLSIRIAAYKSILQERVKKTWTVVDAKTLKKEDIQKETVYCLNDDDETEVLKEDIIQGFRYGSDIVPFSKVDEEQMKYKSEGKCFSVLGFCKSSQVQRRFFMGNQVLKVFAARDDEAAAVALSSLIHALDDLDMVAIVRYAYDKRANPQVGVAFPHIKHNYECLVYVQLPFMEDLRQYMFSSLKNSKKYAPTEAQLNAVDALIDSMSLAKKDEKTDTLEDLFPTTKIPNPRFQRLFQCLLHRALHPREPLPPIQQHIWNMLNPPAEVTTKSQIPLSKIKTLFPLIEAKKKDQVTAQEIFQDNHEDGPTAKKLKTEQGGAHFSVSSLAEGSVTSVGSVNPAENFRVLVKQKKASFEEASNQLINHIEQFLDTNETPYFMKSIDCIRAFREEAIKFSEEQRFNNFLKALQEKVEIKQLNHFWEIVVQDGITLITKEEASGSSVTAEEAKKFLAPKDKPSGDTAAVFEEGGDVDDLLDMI

Results are given in words; binding and its absence hold for the method and conditions named. Binding seen in cells or lysates may run through a third protein. Some results given as binding are weak or reduced against the parent protein; the word gives no strength.

This assay deals with T1, Ferroptosis suppressor protein 1 (human (endogenous in HEK 293T)) (UniProt Q9BRQ8).
T1 sequence: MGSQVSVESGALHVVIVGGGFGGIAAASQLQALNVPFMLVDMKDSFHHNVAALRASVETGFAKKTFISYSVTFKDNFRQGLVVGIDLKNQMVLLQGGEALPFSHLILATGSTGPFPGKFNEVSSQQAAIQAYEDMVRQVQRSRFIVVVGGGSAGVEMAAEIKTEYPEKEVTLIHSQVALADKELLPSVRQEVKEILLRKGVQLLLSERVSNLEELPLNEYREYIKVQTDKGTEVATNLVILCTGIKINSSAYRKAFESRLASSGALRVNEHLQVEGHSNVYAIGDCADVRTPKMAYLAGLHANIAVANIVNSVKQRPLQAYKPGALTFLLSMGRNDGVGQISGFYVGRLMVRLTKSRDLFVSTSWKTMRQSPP
Description: co-IP; IP with IgG (control), anti-Ku70, anti-Ku80 or anti-FSP1 antibody from HEK 293T lysate, protein A/G magnetic beads, 4 °C; immunoblot.

As for Ku70 (from UniProt P12956 1-609), the binding entry is “binds”.

On to Ku80 (from UniProt P13010 1-732), for which the binding entry is “binds”.
